The text below walks through data of US20180208664A1 (APOGENIX, published 2018).

The chains behind the UniProt entries cited, without tags or fusion partners. Residues count along the entry.
UniProt P63308, residues 141-280: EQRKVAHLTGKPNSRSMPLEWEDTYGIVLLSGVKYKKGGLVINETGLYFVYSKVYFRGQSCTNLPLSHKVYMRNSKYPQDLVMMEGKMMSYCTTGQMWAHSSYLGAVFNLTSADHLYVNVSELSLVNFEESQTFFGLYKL
UniProt P41047, residues 140-279: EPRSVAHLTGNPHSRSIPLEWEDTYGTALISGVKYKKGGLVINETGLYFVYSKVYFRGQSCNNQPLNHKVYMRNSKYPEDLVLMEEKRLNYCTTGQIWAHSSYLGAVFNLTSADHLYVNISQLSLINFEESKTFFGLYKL
UniProt P48023: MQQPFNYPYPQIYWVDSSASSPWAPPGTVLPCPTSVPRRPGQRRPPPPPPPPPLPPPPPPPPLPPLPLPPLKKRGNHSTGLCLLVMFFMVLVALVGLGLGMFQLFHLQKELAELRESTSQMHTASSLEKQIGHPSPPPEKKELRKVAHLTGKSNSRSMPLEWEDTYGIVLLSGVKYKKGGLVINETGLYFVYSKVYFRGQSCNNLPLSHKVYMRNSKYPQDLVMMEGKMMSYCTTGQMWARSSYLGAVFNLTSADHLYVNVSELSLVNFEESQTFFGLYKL

Results are given in words; binding and its absence hold for the method and conditions named. Some entries that bind do so weakly or less than the wild type. Ends that are not written are not given here.

In experiment [1] the target is macaca fascicularis CD95L-T4 (macaca fascicularis) (UniProt P63308). The experiment is described as follows: ELISA, macaca fascicularis CD95L-T4 coated. A general note: In an ELISA, binding on a coated surface is turned into a signal by an enzyme label.
For experiment [2], the target named is mus musculus CD95L-T4 (mus musculus) (UniProt P41047). The experiment is described as follows: ELISA, mus musculus CD95L-T4 coated.
Experiment [3] concerns the target CD95L on the cell surface of KFL9 cells (UniProt P48023). Put plainly: flow cytometry on KFL9 cells.

B1: rabbit monoclonal anti-CD95L antibody clone 119-4 (antibody, V domains shown)
VH: QSLEESGGDLVKPGGTLTLTCTTSGFSFSDHYWMCWVRQAPGKGLEWIACIYTADSDSYYASWAKGRFTISKTSSTTVTLQMTSLTAADTATYFCARNGAYAGGPYGDLWGPGTLVTVSS
VL: DIVMTQTPSSVEAAVGGTVTIKCQASQSIRTSLVWYQQKPGQPPKLLIYKASDLPSGVPSRFKGSGSGTQFTLTISDLECADAATYYCQSYDFRDTINNGHSFGGGTEVVVKG
notes: Rabbit monoclonal IgG from a hybridoma subclone, detected with anti-rabbit IgG; Only VH and VL are tied to the clone by name; also called mAb119-4
Take B1: the binding entry in experiment [1] and in experiment [2] was “binds” each time.

B2: rabbit monoclonal anti-CD95L antibody clone 145-12 (antibody, V domains shown)
VH: QSLEESGGDLVKPGASLTLTCTASGFSFSSGYDMCWVRQAPGKGLEWIACIDTDNDATYYASWAKGRFTISKPSSTTVLLQITSLTAADTATYFCATTHGDYVAFKLWGPGTLVTVSS
VL: QVLTQTASSVSAAVGGTVTINCQSSQSVYKNNDLSWYQQKPRQPPKLLIYQASKLASGVPSRFKGSGSGTQFTLTIGDLECDDGATYYCAGGYTASIYAFGGGTEVVVKG
notes: Rabbit monoclonal IgG from a hybridoma subclone; Only VH and VL are tied to the clone by name; also called mAB145-12; mAb145-12
Consider B2, for which, in experiment [3], the binding result is listed as “binds”.
